Laboratory results taken from the supplement of paper PMC10849652.
This is one part of the list.

Sequences of proteins named here, by UniProt entry; tags and fusion partners are left off. A change or cut given only in a name is not applied to a line headed by its entry.
UniProt Q86WX3: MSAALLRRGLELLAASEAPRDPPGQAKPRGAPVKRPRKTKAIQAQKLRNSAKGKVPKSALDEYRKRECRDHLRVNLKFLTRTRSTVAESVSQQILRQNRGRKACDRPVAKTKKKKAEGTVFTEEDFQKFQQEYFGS
UniProt O43148, whole entry, looked up: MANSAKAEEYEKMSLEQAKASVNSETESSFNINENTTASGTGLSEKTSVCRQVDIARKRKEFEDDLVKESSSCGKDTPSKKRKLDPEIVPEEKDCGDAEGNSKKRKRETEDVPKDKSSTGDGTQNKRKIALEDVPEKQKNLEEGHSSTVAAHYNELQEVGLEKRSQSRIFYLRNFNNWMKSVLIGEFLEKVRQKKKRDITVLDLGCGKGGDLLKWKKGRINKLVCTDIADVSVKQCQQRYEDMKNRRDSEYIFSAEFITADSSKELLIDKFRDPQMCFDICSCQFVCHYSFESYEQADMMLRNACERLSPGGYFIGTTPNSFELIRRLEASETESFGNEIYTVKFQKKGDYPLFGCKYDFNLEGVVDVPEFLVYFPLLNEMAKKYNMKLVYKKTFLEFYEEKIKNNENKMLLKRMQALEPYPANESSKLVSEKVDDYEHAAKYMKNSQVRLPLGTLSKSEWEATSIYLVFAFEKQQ
UniProt Q15418, whole entry, looked up: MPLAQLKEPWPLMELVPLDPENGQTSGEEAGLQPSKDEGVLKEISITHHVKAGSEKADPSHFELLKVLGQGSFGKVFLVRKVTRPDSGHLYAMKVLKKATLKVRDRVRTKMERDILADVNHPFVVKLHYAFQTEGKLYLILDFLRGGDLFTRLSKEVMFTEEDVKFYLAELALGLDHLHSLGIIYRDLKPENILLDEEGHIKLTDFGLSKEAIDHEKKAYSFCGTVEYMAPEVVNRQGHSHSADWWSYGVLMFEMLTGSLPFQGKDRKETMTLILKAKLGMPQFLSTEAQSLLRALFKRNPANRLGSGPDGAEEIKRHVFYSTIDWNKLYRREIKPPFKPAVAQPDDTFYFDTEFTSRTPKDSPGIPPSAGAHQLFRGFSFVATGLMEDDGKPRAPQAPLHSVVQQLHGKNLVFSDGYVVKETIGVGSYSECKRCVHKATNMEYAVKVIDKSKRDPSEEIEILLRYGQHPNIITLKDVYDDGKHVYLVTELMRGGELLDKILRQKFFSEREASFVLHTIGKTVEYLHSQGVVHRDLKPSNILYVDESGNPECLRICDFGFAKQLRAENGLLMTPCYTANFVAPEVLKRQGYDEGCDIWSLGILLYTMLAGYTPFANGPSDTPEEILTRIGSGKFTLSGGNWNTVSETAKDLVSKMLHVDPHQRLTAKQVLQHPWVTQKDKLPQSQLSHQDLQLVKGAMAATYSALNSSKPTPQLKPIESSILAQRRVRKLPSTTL
UniProt Q7LG56, whole entry, looked up: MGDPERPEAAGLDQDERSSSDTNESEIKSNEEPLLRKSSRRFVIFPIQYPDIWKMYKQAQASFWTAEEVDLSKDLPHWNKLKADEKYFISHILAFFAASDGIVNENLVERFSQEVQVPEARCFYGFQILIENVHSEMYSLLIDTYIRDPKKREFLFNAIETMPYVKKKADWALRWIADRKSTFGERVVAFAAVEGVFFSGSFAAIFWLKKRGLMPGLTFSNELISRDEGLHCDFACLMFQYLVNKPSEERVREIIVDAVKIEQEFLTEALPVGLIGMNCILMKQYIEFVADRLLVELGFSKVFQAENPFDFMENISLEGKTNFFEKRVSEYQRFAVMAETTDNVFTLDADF
UniProt Q8IZ73: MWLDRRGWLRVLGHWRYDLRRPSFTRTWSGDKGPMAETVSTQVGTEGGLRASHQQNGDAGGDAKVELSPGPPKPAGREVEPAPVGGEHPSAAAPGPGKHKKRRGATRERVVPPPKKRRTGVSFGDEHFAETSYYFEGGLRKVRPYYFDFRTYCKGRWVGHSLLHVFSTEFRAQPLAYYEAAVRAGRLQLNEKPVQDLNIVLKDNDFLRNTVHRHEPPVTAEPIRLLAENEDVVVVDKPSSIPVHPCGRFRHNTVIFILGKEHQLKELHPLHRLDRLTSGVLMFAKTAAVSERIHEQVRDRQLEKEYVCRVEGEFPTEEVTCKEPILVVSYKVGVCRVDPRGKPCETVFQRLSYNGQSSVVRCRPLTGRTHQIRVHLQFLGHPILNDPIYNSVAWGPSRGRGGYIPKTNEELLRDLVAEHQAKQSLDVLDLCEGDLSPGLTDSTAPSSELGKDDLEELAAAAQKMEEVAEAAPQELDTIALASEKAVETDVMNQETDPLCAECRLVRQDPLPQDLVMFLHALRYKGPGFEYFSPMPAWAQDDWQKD
UniProt P23921: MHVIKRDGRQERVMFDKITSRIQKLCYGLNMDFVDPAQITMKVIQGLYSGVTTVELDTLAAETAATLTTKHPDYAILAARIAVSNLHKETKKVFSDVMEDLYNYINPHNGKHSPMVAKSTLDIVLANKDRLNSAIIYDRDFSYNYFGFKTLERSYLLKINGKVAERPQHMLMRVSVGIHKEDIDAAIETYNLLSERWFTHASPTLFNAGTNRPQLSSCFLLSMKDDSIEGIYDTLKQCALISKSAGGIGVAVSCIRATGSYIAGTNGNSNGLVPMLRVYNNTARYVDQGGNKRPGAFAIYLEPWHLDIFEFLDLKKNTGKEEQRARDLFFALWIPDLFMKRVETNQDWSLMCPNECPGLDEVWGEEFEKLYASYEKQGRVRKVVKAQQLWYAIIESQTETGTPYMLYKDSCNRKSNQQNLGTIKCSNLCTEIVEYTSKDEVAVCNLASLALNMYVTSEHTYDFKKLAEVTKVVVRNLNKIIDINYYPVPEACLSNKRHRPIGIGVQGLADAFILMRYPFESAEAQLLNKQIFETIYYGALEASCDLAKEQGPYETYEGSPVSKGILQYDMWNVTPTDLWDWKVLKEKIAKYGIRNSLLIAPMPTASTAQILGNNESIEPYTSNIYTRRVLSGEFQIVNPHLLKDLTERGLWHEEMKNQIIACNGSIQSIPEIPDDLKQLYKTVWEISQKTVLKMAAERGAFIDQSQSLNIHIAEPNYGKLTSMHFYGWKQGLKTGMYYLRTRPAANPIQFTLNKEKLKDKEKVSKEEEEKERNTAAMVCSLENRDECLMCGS
UniProt Q01974, whole entry, looked up: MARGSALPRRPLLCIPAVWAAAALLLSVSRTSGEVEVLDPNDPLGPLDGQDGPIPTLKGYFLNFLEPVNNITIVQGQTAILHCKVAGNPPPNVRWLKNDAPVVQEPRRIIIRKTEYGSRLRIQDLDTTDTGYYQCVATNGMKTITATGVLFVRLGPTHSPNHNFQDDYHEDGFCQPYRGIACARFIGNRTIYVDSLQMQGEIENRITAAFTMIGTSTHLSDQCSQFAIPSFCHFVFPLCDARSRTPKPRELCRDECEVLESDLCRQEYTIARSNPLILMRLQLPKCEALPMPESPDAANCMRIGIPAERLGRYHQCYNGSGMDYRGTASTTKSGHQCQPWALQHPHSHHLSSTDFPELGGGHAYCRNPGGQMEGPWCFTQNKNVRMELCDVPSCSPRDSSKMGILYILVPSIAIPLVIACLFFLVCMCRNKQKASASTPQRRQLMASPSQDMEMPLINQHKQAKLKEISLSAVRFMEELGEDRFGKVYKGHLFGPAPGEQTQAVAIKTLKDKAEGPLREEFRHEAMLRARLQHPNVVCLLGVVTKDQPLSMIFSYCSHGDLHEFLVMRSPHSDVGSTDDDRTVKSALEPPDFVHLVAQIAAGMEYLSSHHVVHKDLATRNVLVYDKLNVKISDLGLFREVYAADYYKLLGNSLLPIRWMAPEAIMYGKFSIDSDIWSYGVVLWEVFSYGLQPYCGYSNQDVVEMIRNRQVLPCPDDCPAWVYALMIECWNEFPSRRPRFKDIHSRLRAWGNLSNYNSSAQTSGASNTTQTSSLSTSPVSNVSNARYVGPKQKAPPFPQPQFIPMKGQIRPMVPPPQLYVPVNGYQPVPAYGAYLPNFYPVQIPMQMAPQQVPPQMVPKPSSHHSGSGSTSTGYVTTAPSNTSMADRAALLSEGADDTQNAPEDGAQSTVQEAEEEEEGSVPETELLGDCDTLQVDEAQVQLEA
UniProt Q8N122, whole entry, looked up: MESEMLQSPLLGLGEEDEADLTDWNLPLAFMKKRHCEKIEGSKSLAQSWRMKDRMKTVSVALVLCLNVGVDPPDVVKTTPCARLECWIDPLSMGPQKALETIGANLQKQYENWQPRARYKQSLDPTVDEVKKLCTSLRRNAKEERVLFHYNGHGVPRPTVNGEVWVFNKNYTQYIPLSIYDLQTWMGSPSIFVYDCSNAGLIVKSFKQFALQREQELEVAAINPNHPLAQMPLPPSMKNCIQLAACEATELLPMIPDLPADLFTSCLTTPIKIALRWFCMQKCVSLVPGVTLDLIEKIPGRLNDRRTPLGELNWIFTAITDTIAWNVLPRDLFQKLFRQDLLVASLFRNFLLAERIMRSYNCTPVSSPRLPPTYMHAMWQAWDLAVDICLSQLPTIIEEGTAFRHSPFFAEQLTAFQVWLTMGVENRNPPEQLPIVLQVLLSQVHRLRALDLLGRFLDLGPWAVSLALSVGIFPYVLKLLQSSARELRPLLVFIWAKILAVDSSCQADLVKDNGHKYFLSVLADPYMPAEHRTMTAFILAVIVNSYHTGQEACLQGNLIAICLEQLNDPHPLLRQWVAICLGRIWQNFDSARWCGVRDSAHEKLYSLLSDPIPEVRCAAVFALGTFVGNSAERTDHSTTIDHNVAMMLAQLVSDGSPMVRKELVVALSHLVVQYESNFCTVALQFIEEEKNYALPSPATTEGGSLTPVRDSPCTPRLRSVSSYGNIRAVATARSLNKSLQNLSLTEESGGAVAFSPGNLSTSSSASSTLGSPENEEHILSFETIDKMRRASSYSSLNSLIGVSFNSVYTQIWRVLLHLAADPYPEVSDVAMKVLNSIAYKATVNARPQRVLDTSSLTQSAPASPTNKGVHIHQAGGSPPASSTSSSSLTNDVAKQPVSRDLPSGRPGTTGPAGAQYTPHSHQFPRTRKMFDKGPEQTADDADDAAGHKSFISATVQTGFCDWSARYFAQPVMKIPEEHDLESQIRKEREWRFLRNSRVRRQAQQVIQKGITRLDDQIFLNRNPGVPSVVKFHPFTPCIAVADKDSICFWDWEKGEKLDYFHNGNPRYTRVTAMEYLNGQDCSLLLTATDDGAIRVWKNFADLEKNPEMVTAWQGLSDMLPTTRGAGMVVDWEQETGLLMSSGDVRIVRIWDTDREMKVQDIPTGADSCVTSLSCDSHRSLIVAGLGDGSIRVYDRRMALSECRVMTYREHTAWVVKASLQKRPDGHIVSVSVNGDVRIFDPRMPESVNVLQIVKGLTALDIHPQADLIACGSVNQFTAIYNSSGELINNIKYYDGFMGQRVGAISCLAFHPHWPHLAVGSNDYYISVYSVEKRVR
UniProt Q9H6T3, whole entry, looked up: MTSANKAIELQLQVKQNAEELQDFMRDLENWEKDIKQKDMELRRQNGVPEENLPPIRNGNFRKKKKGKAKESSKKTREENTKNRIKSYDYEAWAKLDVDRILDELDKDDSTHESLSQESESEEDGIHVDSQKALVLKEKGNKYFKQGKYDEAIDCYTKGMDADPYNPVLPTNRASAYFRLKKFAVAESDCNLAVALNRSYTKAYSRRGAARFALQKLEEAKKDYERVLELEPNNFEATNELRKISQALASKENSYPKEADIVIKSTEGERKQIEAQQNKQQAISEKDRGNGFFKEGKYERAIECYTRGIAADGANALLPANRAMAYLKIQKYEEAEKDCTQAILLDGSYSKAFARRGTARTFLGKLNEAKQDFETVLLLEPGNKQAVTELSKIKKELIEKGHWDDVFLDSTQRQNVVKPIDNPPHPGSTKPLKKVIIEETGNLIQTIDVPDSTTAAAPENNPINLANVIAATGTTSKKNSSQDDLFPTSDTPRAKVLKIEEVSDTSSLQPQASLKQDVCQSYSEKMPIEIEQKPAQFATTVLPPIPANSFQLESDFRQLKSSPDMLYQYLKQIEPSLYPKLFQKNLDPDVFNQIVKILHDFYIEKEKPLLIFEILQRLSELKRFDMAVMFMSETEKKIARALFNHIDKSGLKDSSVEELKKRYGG

Experiments:
Assay in all cases: log2 fold change, soluble protein after heating vs DMSO (PISA); higher = thermal stabilisation; K562 cells, 10 uM, 30 min; active = over 0.2 and 3.5 SD of the protein, either way, in both replicates (recomputed)
[1] = compound: CC1=C(C=C(C=C1)NC(=O)C2=CC(=CC=C2)C(C)(C)C#N)NC3=CC4=C(C=C3)N=CN(C4=O)C
How it was run: (§1)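 K562 cells at 2×10^6 cells/mL were given 10 μM compound for 30 min. Aliquots then went through 3 min of heating across 48°C-58°C, were pooled, and were extracted in PBS with 0.5% NP-40 at 4°C, and the supernatant after 21,000xg for 90 min was quantified by TMTpro 16plex LC-MS/MS with channel sums equalised. Thermal stability relative to control samples, from duplicates, is given as log2 fold change.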

[2] = compound: CC1=C(C=C(C=C1)NC(=O)C2=CC(=CC=C2)N(C)C)NC(=O)C3=CC=C(C=C3)O
How it was run: as §1

[3] = compound: CC1=CC=C(C=C1)SC2=C3C=C(SC3=CN=C2)C(=O)N
How it was run: as §1

[4] = compound: CC1=NC(=CC=C1)C2=C(N=C(N2)C(C)(C)C)C3=CC4=NC=CN=C4C=C3
How it was run: as §1

Nexturastat A = compound: CCCCN(Cc1ccc(C(=O)NO)cc1)C(=O)Nc1ccccc1 [Nexturastat A]
How it was run: as §1

vemurafenib = compound: CCCS(=O)(=O)Nc1ccc(F)c(C(=O)c2c[nH]c3ncc(-c4ccc(Cl)cc4)cc23)c1F [vemurafenib]
How it was run: as §1

[5] = compound: CCCS(=O)(=O)Nc1ccc(F)c(C(=O)c2c[nH]c3ncc(Cl)cc23)c1F
How it was run: as §1

[6] = compound: CCCc1cc(C)[nH]c(=O)c1CNC(=O)c1cc(-c2ccnc(N3CCN(C)CC3)c2)cc2c1cnn2C(C)C
How it was run: as §1

givinostat = compound: CCN(CC)Cc1ccc2cc(COC(=O)Nc3ccc(C(=O)NO)cc3)ccc2c1 [givinostat]
How it was run: as §1

barasertib = compound: CCN(CCCOc1ccc2c(Nc3cc(CC(=O)Nc4cccc(F)c4)[nH]n3)ncnc2c1)CCOP(=O)(O)O [barasertib]
How it was run: as §1

Measured: log2 fold change

RPS28 (UniProt P62857)
inactive: [1] 0.02 | [2] 0.032 | [3] -0.091 | [4] -0.004 | Nexturastat A 0 | vemurafenib -0.088 | [5] -0.155 | [6] 0.001 | givinostat -0.031 | barasertib 0.005

RPS19BP1 (UniProt Q86WX3)
inactive: [1] 0.064 | [2] -0.022 | [3] -0.163 | [4] -0.05 | Nexturastat A 0.379 | vemurafenib -0.173 | [5] 0.028 | [6] 0.137 | givinostat -0.065 | barasertib 0.008

RPL35A (UniProt P18077)
inactive: [1] 0.052 | [2] -0.013 | [3] -0.065 | [4] -0.162 | Nexturastat A 0.319 | vemurafenib -0.269 | [5] -0.13 | [6] 0.2 | givinostat 0.189 | barasertib -0.206

RPS25 (UniProt P62851)
inactive: [1] 0.009 | [2] 0 | [3] -0.03 | [4] 0 | Nexturastat A 0.11 | vemurafenib -0.08 | [5] -0.102 | [6] 0.06 | givinostat 0.042 | barasertib -0.075

RPS3 (UniProt P23396)
inactive: [1] 0.011 | [2] 0.003 | [3] -0.077 | [4] -0.042 | Nexturastat A 0.069 | vemurafenib -0.086 | [5] -0.102 | [6] 0.041 | givinostat 0.007 | barasertib -0.088

RPL14 (UniProt P50914)
inactive: [1] 0.043 | [2] -0.021 | [3] -0.11 | [4] -0.119 | Nexturastat A 0.38 | vemurafenib -0.297 | [5] -0.148 | [6] 0.307 | givinostat 0.068 | barasertib -0.221

RPS24 isoform 4 (UniProt P62847)
inactive: [1] 0.034 | [2] 0.002 | [3] -0.099 | [4] -0.07 | Nexturastat A 0.268 | vemurafenib -0.117 | [5] -0.089 | [6] 0.123 | givinostat -0.002 | barasertib -0.117

RNMT isoform 2 (UniProt O43148)
inactive: [1] -0.01 | [2] 0.007 | [3] -0.037 | [4] -0.016 | Nexturastat A 0.059 | vemurafenib -0.139 | [5] 0 | [6] -0.017 | givinostat -0.011 | barasertib -0.024

RPS13 (UniProt P62277)
inactive: [1] 0.006 | [2] 0.022 | [3] -0.044 | [4] -0.057 | Nexturastat A 0.119 | vemurafenib -0.144 | [5] -0.09 | [6] 0.091 | givinostat 0.045 | barasertib -0.101

RPS6KA1 isoform 2 (UniProt Q15418)
inactive: [1] -0.016 | [2] -0.187 | [3] 0.033 | [4] 0.078 | Nexturastat A 0.004 | vemurafenib 0.016 | [5] 0.046 | [6] 0.071 | givinostat -0.141 | barasertib 0.029

RRM2B isoform 6 (UniProt Q7LG56)
inactive: [1] -0.028 | [2] 0.006 | [3] 0.046 | [4] -0.02 | Nexturastat A -0.066 | vemurafenib -0.023 | [5] -0.061 | [6] -0.023 | givinostat 0.002 | barasertib 0.047

RPL4 (UniProt P36578)
inactive: [1] 0.06 | [2] 0 | [3] -0.071 | [4] -0.192 | Nexturastat A 0.348 | vemurafenib -0.291 | [5] -0.093 | [6] 0.317 | givinostat 0.165 | barasertib -0.199

RPL7 (UniProt P18124)
inactive: [1] 0.047 | [2] 0.003 | [3] -0.082 | [4] -0.246 | Nexturastat A 0.442 | vemurafenib -0.308 | [5] -0.121 | [6] 0.248 | givinostat 0.219 | barasertib -0.211

RPL29 (UniProt P47914)
inactive: [1] 0.018 | [2] -0.019 | [3] -0.077 | [4] -0.206 | Nexturastat A 0.071 | vemurafenib -0.172 | [5] 0 | [6] 0.243 | givinostat 0.028 | barasertib -0.139

RPS9 (UniProt P46781)
inactive: [1] 0.039 | [2] 0 | [3] -0.073 | [4] -0.016 | Nexturastat A 0.104 | vemurafenib -0.107 | [5] -0.066 | [6] 0.087 | givinostat 0.038 | barasertib -0.114

RPUSD2 (UniProt Q8IZ73)
inactive: [1] 0.055 | [2] 0.031 | [3] -0.007 | [4] 0.01 | Nexturastat A 0.006 | vemurafenib -0.016 | [5] 0.014 | [6] 0.045 | givinostat -0.009 | barasertib -0.015

RPL27A (UniProt P46776)
inactive: [1] -0.023 | [2] 0.022 | [3] -0.196 | [4] -0.188 | Nexturastat A 0.329 | vemurafenib -0.209 | [5] -0.203 | [6] 0.16 | givinostat 0.053 | barasertib -0.148

RPL24 (UniProt P83731)
inactive: [1] 0.019 | [2] 0.002 | [3] -0.03 | [4] -0.165 | Nexturastat A 0.272 | vemurafenib -0.117 | [5] -0.06 | [6] 0.206 | givinostat 0.015 | barasertib -0.092

RPL21 (UniProt P46778)
inactive: [1] 0.034 | [2] -0.002 | [3] -0.163 | [4] -0.235 | Nexturastat A 0.624 | vemurafenib -0.353 | [5] -0.146 | [6] 0.163 | givinostat 0.152 | barasertib -0.151

RRM1 (UniProt P23921)
inactive: [1] -0.021 | [2] 0.005 | [3] 0.004 | [4] 0.026 | Nexturastat A -0.093 | vemurafenib -0.007 | [5] 0.026 | [6] -0.061 | givinostat -0.03 | barasertib 0.006

RPL36AL (UniProt Q969Q0)
inactive: [1] -0.003 | [2] 0.017 | [3] -0.046 | [4] -0.128 | Nexturastat A 0.101 | vemurafenib -0.19 | [5] -0.045 | [6] 0.302 | givinostat 0.023 | barasertib -0.168

ROR2 (UniProt Q01974)
inactive: [1] 0.022 | [2] -0.061 | [3] 0.001 | [4] -0.009 | Nexturastat A -0.109 | vemurafenib 0.018 | [5] 0.007 | [6] 0.078 | givinostat 0.033 | barasertib 0.003

RPTOR (UniProt Q8N122)
inactive: [1] 0.009 | [2] 0.019 | [3] 0.027 | [4] 0.025 | Nexturastat A -0.018 | vemurafenib 0.017 | [5] 0.09 | [6] 0.012 | givinostat -0.007 | barasertib -0.007

RPAP3 (UniProt Q9H6T3)
inactive: [1] 0.062 | [2] -0.03 | [3] -0.015 | [4] 0.042 | Nexturastat A 0.058 | vemurafenib 0.007 | [5] 0.026 | [6] 0 | givinostat 0.046 | barasertib 0.027

2 successive records out of the list so far, for reference:
ROR2 (UniProt Q01974)
inactive: [1] 0.022 | [2] -0.061 | [3] 0.001 | [4] -0.009 | Nexturastat A -0.109 | vemurafenib 0.018 | [5] 0.007 | [6] 0.078 | givinostat 0.033 | barasertib 0.003

RPTOR (UniProt Q8N122)
inactive: [1] 0.009 | [2] 0.019 | [3] 0.027 | [4] 0.025 | Nexturastat A -0.018 | vemurafenib 0.017 | [5] 0.09 | [6] 0.012 | givinostat -0.007 | barasertib -0.007

(continued)

RPS6 (UniProt P62753)
inactive: [1] 0 | [2] 0 | [3] -0.071 | [4] -0.077 | Nexturastat A 0.227 | vemurafenib 0.034 | [5] 0.029 | [6] 0.152 | givinostat 0.024 | barasertib -0.15

RPLP0 (UniProt P05388)
inactive: [1] -0.032 | [2] 0 | [3] -0.085 | [4] -0.152 | Nexturastat A 0.361 | vemurafenib -0.21 | [5] -0.08 | [6] 0.249 | givinostat 0.157 | barasertib -0.182

RPS6KA3 (UniProt P51812)
inactive: [1] -0.072 | [2] -0.157 | [3] 0.021 | [4] 0.01 | Nexturastat A 0.015 | vemurafenib 0.001 | [5] 0.016 | [6] 0.042 | givinostat -0.227 | barasertib 0.06

RPS26 (UniProt P62854)
inactive: [1] 0.046 | [2] 0.03 | [3] -0.009 | [4] -0.06 | Nexturastat A 0.342 | vemurafenib -0.165 | [5] -0.038 | [6] 0.033 | givinostat 0.079 | barasertib -0.131

RPS27A (UniProt P62979)
inactive: [1] -0.023 | [2] -0.011 | [3] -0.179 | [4] -0.075 | Nexturastat A 0.368 | vemurafenib -0.126 | [5] -0.224 | [6] 0.152 | givinostat -0.109 | barasertib -0.119

RPS27 (UniProt P42677)
inactive: [1] -0.031 | [2] 0.046 | [3] -0.033 | [4] -0.037 | Nexturastat A 0.106 | vemurafenib -0.023 | [5] -0.03 | [6] 0.079 | givinostat 0.125 | barasertib -0.077
